# Several values for one entry are separate records, joined by “and”; a condition that tells them apart may be missing. Equal values may be shown once. About 5,400 (1.8%) of roughly 300,000 compounds were called active. Inconclusive results, whose numbers are uncertain, are shown with a selection of clear calls. The call rests on the fitted dose curve; tested in HEK293 cells. A potency beside an inconclusive call is a rough fit, not a confirmed value.
# Assay: qHTS for inhibitors of binding or entry into cells for Marburg Virus
# Conditions: Marburg virus pseudotyped entry inhibition, cell reporter; series mostly up to 37.8 µM
# Potency means the concentration at half of the fitted maximal effect.
row,SMILES,Potency
1,CCCc1ccc(-c2ccc(C(=O)O)cc2)nc1,"inconclusive: 18.3 µM [inhibitor, single point]"
2,COC(=O)C1=C(C(=O)OC)SC(=C2C(=S)C(C)(C)N(C(=O)C3CC3)c3ccccc32)S1,"inconclusive: 16.4 µM [inhibitor, single point]"
3,CN(C)c1ccc(C(=O)OCC(=O)c2ccc[nH]2)cc1,"inconclusive: 2.51 µM [activator, full curve]"
4,O=C1Nc2ccccc2N(O)N1c1ccc(Cl)cc1,inactive
5,C[C@@]1([C@@H](NP(=O)(c2ccccc2)c2ccccc2)c2ccccc2)C[C@H]1CCO,"inconclusive: 1.16 µM [inhibitor, full curve, poor fit]"
6,O=C(NCc1cccc(C(F)(F)F)c1)c1cccc(S(=O)(=O)N2CCN(Cc3ccccc3)CC2)c1,"inconclusive: 12.6 µM [inhibitor, partial curve, poor fit]"
7,CCOC(=O)C1CCN(c2cc3c(cc2NC(=O)c2ccc(OC)c(OC)c2)n(C)c(=O)n3C)CC1,inactive
8,CCCOc1ccc(-c2nc(OC)c3ccccc3n2)cc1,"inconclusive: 1.26 µM [inhibitor, single point]"
9,O=C(c1ccc(-c2ccc([N+](=O)[O-])cc2)o1)N1CCCCC1,inactive
10,CC1(C(=O)NC2CCCCC2)Cc2ccccc2C(=O)N1Cc1ccc(Cl)cc1 (stereo not given),"inconclusive: 0.891 µM [inhibitor, full curve, poor fit]"
11,CCOCCCNC(=O)c1cc(Sc2nnc(C)s2)nc2ccccc12,inactive
12,COc1cccc(C2C(C(=O)Nc3ccc(Cl)cc3)=C(C)Nc3c(C(=O)Nc4ccccc4)cnn32)c1OC (stereo not given),"inconclusive: 25.1 µM [inhibitor, partial curve, poor fit]"
13,Cn1c(=O)c2c(nc(SCC(=O)Nc3ccc(F)cc3F)n2Cc2ccccc2)n(C)c1=O,inactive
14,O=C(CSc1nc2ccc(NC(=O)C3CCCCC3)cc2s1)NCC1CCCO1 (stereo not given),"inconclusive: 15.8 µM [inhibitor, single point]"
15,O=C(NC1CC2CCC(C1)N2Cc1ccco1)c1ccccc1 (stereo not given),"inconclusive: 31.6 µM [inhibitor, partial curve, poor fit]"
16,Cc1c(CCO)sc[n+]1CC(=O)OCCC12CC3CC(CC(C3)C1)C2,"inconclusive: 23.1 µM [inhibitor, single point]"
17,COc1ccc(/C=C/C(=O)Nc2ccc3nc(N4CCC(C)CC4)cc(C)c3c2)cc1OC,active: 10 µM
18,COc1ccc(CCN[C@@H]2C[C@@H](C)N(C)C[C@H]2C)cc1OC,"inconclusive: 29.1 µM [inhibitor, single point]"
19,CCc1c(C#N)c(SCCC(=O)Nc2ccc(F)cc2)nc2c1C(=O)CC(C)(C)C2,"inconclusive: 8.91 µM [inhibitor, partial curve]"
20,COc1ccc(NC(=O)c2cc(-c3ccc4c(c3)OCO4)on2)c(OC)c1,"inconclusive: 3.98 µM [activator, single point]"
21,CN1CC(=O)N/C1=N/C(=O)Nc1cccc(Cl)c1,"inconclusive: 11.6 µM [activator, partial curve]"
22,O=C1c2ccccc2C(=O)N1CCCC[C@]12Cc3c(ccc4ccccc34)[C@H](O1)c1c(cc(-c3ccccc3)oc1=O)O2,"inconclusive: 0.0335 µM [inhibitor, full curve, poor fit]"

# 3 of the compounds above, tab-delimited:
row	SMILES	Potency
2	COC(=O)C1=C(C(=O)OC)SC(=C2C(=S)C(C)(C)N(C(=O)C3CC3)c3ccccc32)S1	inconclusive: 16.4 µM [inhibitor, single point]
3	CN(C)c1ccc(C(=O)OCC(=O)c2ccc[nH]2)cc1	inconclusive: 2.51 µM [activator, full curve]
4	O=C1Nc2ccccc2N(O)N1c1ccc(Cl)cc1	inactive

# Remaining list, next part.

row,SMILES,Potency
1,O=C(CSc1nc(=O)[nH]c2c1CCCC2)Nc1ccc(F)cc1F,"inconclusive: 0.224 µM [inhibitor, full curve, poor fit]"
2,C=CCOC(=O)/C(=C/c1ccco1)NC(=O)/C=C/c1ccccc1,inactive
3,Cc1ccc(S(=O)(=O)c2nc(-c3ccco3)oc2SC(C)C)cc1,"inconclusive: 12.6 µM [inhibitor, partial curve, poor fit]"
4,CC1CCN(Cc2nc(-c3ccc(Cl)cc3)no2)CC1,"inconclusive: 5.01 µM [activator, full curve, poor fit]"
5,COc1ccc(C(=O)Nc2ccc(/C(C)=N/NC(=O)c3ccccc3O)cc2)cc1OC,active: 13 µM
6,Cc1ccc(NC(=O)Cn2c(=O)n(-c3ccc(C)cc3)c(=O)c3ccc(C(=O)NCc4ccccc4Cl)cc32)cc1,inactive
7,N#CCCN(Cc1cccnc1)C(=S)NC(=O)c1ccccc1,"inconclusive: 6.31 µM [inhibitor, single point]"
8,COc1ccc(CNC(=O)C(c2ccco2)N(C(=O)CNS(=O)(=O)c2ccccc2)c2ccccc2C)cc1 (stereo not given),"inconclusive: 29.1 µM [inhibitor, single point] and inconclusive: 11.2 µM [inhibitor, partial curve, poor fit]"
9,CC(=O)NC(=O)c1cnn(-c2ccccc2)c1N,"inconclusive: 5.62 µM [inhibitor, single point]"
10,COc1ccc(OC)c(NC(=O)c2cc3c(=O)n4ccccc4nc3n2C)c1,"inconclusive: 7.94 µM [activator, partial curve]"
11,CCOC(=O)c1ccc(Nc2ncnc3c2cnn3C)cc1,inactive
12,CCCCn1c(N)c(N(CCC(C)C)C(=O)COC(=O)/C=C/c2ccc(F)cc2)c(=O)[nH]c1=O,inactive
13,CC(=O)Nc1ccc(S(=O)(=O)Nc2cc(Cl)ccc2N2CCOCC2)cc1,"inconclusive: 35.5 µM [inhibitor, single point]"
14,C=C1N(C)c2cc([N+](=O)[O-])c(N)cc2C1(C)C,"inconclusive: 28.2 µM [inhibitor, partial curve, poor fit]"
15,CC(=O)Nc1ccc(N=Nc2ccccc2)cc1[N+](=O)[O-],inactive
16,Cc1cc2n(n1)C(c1ccc(N(C)C)cc1)Nc1ccccc1-2 (stereo not given),"inconclusive: 29.1 µM [inhibitor, single point]"
17,O=C(COc1ccccc1)Nc1nc(-c2ccc(S(=O)(=O)N3CCOCC3)cc2)cs1,"inconclusive: 35.5 µM [inhibitor, single point]"
18,COC(=O)Cc1ccc(N(Cc2ccccc2F)S(=O)(=O)c2ccc(C)cc2)cc1,"inconclusive: 35.5 µM [inhibitor, partial curve, poor fit]"
19,NS(=O)(=O)c1cc2c(cc1Cl)NC=NS2(=O)=O,"inconclusive: 316 nM [inhibitor, full curve, poor fit] and inconclusive: 6.51 µM [inhibitor, single point]"
20,O=C(CN1CCC(NC(=O)Nc2ccccc2)CC1)Nc1ccccc1F,inactive
21,Cc1ccc(C(=O)N/C(=C\c2ccc(-c3cccc([N+](=O)[O-])c3)o2)C(=O)NCCCN(C)C)cc1,"inconclusive: 8.91 µM [inhibitor, partial curve, poor fit]"
22,CC(C)C1CC(CCN)(Cc2ccccc2)CCO1 (stereo not given),active: 14.6 µM

row,SMILES,Potency
1,CC(C)Sc1ncc(Cl)c(C(=O)Nc2ccc(S(=O)(=O)N3CCCCC3C)cc2)n1 (stereo not given),"inconclusive: 22.4 µM [inhibitor, single point]"
2,CSc1cccc(CN2CCN(Cc3ccc(F)c(F)c3)C(CCO)C2)c1 (stereo not given),"inconclusive: 35.5 µM [inhibitor, single point]"
3,Nc1nonc1-c1noc(CCCCCN2C(=O)c3ccccc3C2=O)n1,inactive
4,Cn1c(=O)c2[nH]c(-c3ccccc3)nc2n(C)c1=O,"inconclusive: 3.55 µM [inhibitor, partial curve, poor fit]"
5,O=C(Nc1ccc(F)cc1)c1cccc(N2C(=O)C3C4CCC(C4)C3C2=O)c1 (stereo not given),inactive
6,CCCCN(C(=O)CCC(=O)Nc1cc(C)on1)C(C(=O)NC1CCCC1)c1ccc(OCC)cc1 (stereo not given),"inconclusive: 28.2 µM [inhibitor, partial curve, poor fit]"
7,CC(C)(C)NC(=O)NC(=O)CN1CCN(C(c2ccccc2)c2ccccc2)CC1,"inconclusive: 12.6 µM [inhibitor, partial curve, poor fit]"
8,CCCn1c(=N)n(CC(O)c2ccco2)c2ccccc21 (stereo not given),"inconclusive: 11.2 µM [inhibitor, partial curve]"
9,C#CC(CC)(CC)NC(=S)Nc1ccc(S(N)(=O)=O)cc1,inactive
10,O=C(N/N=C/c1cccnc1)/C(=C\c1cccs1)NC(=O)c1ccccc1,"inconclusive: 6.31 µM [activator, partial curve, poor fit]"
11,CCOC(=O)CSc1c(-c2ccccc2)c2cc(Cl)ccc2[nH]c1=O,"inconclusive: 20 µM [inhibitor, partial curve, poor fit]"
12,COc1ccc(OC(C)C(=O)NCc2nc(-c3ccc(Cl)cc3)no2)cc1 (stereo not given),inactive
13,CC1Sc2ccc(S(=O)(=O)N3CCC(C(=O)NCc4ccccc4)CC3)cc2NC1=O (stereo not given),inactive
14,CCN(CC)S(=O)(=O)c1cccc(C(=O)N/N=C/c2cc(OC)c(O)c(OC)c2)c1,inactive
15,COCCN1CC(C(=O)NCc2ccccc2-n2ccnc2C)CCC1=O (stereo not given),inactive
16,Cn1c(CNc2nc(-c3ccccc3)cs2)nnc1SCC(=O)c1ccccc1,"inconclusive: 15.8 µM [inhibitor, single point]"
17,N#Cc1cc2c(nc1SCC(=O)Nc1ccc(C(F)(F)F)cc1)C1CCN2CC1,"inconclusive: 28.2 µM [inhibitor, partial curve, poor fit]"
18,Cc1ccc(-c2[nH]ncc2/C=N/n2c(COc3ccccc3C)nc3ccccc3c2=O)cc1,active: 11.2 µM
19,O=C(CO/N=C\c1ccccc1)Nc1ccccc1C(=O)N1CCOCC1,inactive
20,CCC(C(=O)NCc1ccccc1)n1ncn2c(cc3occc32)c1=O (stereo not given),inactive
21,CCN(CC)CCCN1C(=O)C(O)=C(C(=O)c2sc(C)nc2C)C1c1ccc(C)o1 (stereo not given),inactive
